Data from PubChem BioAssay AID590 (National Center for Advancing Translational Sciences (NCATS), 2007).
Values joined by “and” are separate entries in the source; they are usually repeats but may differ in a detail not shown here. Equal values may be shown once. In all, about 59,000 compounds went through this assay and about 6,500 (11%) were called active. The inconclusive results got no clear call from the source; some entries with a clear call stand among them for comparison. Rule as the data show it: active = max dye-equivalent concentration above about 10 nM; inconclusive = mostly about 1.1 nM to 9.6 nM; inactive = weaker than that.

Experiment: qHTS Assay for Spectroscopic Profiling in A350 Spectral Region
Settings: Compound autofluorescence, 340/450 nm, Alexa 350 dye-equivalents; hits give high values
In the case of `COC(=O)c1ccc(COc2ncnc3c(Cl)cc(Cl)cc23)o1`, the max dye-equivalent concentration is reported as inconclusive: 1.3e-09 M. In the case of `CCCn1nc(CC(=O)O)c2ccccc2c1=O`, the max dye-equivalent concentration is reported as active: 1.2e-08 M. With `NC(=O)C1CCN(CC(=O)N2c3ccccc3CCc3ccccc32)CC1` the max dye-equivalent concentration was inconclusive: 3.2e-09 M. With `CC1(C)CC2CC(C)(CN2CC(=O)C(C#N)c2ccccc2)C1` (centres undefined) the max dye-equivalent concentration was inconclusive: 2.5e-09 M. In the case of `FC(F)(F)c1cccc(-c2nc3nc(Cl)c(Cl)nc3[nH]2)c1`, the max dye-equivalent concentration is reported as active: 1.3e-06 M. For `CCOc1ccc(-n2c(=O)[nH]cc(C(=O)N3CCCc4ccccc43)c2=O)cc1`, the max dye-equivalent concentration was inconclusive: 2e-09 M. For `CCCOc1ccccc1-c1nc2c([nH]1)c(=O)[nH]c(=O)n2C`, the max dye-equivalent concentration was active: 2.6e-07 M. With `Cc1cc(NC(=O)CCCC(=O)O)nc(C)n1` the max dye-equivalent concentration was inconclusive: 1.3e-09 M. With `Nc1nc(N2CCN(C/C=C/c3ccccc3)CC2)nc2ccccc12` the max dye-equivalent concentration was inconclusive: 4.7e-09 M. For `CC(C)C(=O)N1CCN(c2nc(-c3ccccc3)c3c(c2C#N)CC(C)(C)OC3)CC1`, the max dye-equivalent concentration was active: 2e-07 M. For `O=C(c1ccc(S(=O)(=O)N2CCOCC2)cc1)N1CCc2ccccc2C1`, the max dye-equivalent concentration was inconclusive: 3.1e-09 M. In the case of `CCOC(=O)N1CCN(C(=O)CCCn2nc(C)c3sc4ccccc4c3c2=O)CC1`, the max dye-equivalent concentration is reported as inconclusive: 1.8e-09 M. With `Cc1ccc(S(=O)(=O)N[C@H](C(=O)N2CCC(C(=O)N3CCC[C@H]3C(=O)O)CC2)C(C)C)cc1` the max dye-equivalent concentration was inconclusive: 2.1e-09 M. With `CCOCCCn1c(=N)c(C(=O)Nc2cc(C)on2)cc2c(=O)n3ccccc3nc21` the max dye-equivalent concentration was active: 7.1e-07 M. For `O=C1CC(c2ccco2)CC(O)=C1C=NCC1NCCc2ccccc21` (centres undefined), the max dye-equivalent concentration was inconclusive: 1.1e-09 M. In the case of `O=C(NCCCCCNC(=O)c1cccnc1)c1cccnc1`, the max dye-equivalent concentration is reported as inconclusive: 3.8e-09 M. In the case of `c1cncc(-c2nc3c4ccccc4nc(N4CCC(N5CCCCC5)CC4)n3n2)c1`, the max dye-equivalent concentration is reported as “inactive”. With `Cc1ccc(C)n1CCN1CCN(C(=O)CSc2nc3ccccc3nc2N2CCOCC2)CC1` the max dye-equivalent concentration was inconclusive: 2.9e-09 M. In the case of `COC(=O)c1c(NC(=O)CN2CCC(C)CC2)c2c(C)cccc2n1C`, the max dye-equivalent concentration is reported as inconclusive: 1.3e-09 M. For `COC(=O)c1cc2ccsc2n1CC(=O)Nc1cc(Cl)ccc1OC`, the max dye-equivalent concentration was inconclusive: 3.4e-09 M. For `C=CCn1c(N)c(C(=O)NCCC2=CCCCC2)sc1=S`, the max dye-equivalent concentration was “inactive”. With `COc1cccc(Cn2c(=O)c(-c3cccs3)nc3cnc(OC)nc32)c1` the max dye-equivalent concentration was active: 1.9e-08 M. For `N[C@H](Cc1cc(I)c(Oc2cc(I)c(O)c(I)c2)c(I)c1)C(=O)O`, the max dye-equivalent concentration was “inactive”. For `CC(C)c1ccc(NC(=O)C2C3C=CC4(CN(CCCN5CCOCC5)C(=O)C24)O3)cc1` (centres undefined), the max dye-equivalent concentration was inconclusive: 5.5e-09 M. With `CCn1c(SCC(=O)NCCOC)nc2sc(C)c(C)c2c1=O` the max dye-equivalent concentration was “inactive”. In the case of `CC(=O)c1c(C)[nH]c(C(=O)OCC(=O)Nc2cc(C(F)(F)F)ccc2N2CCOCC2)c1C`, the max dye-equivalent concentration is reported as “inactive”. In the case of `CN1CCN(c2nc(-c3cccs3)cc(C(F)(F)F)n2)CC1`, the max dye-equivalent concentration is reported as active: 1.2e-08 M. For `CCCCC(CCC(=O)Nc1ccc(C(=O)OCC)cc1)C(=O)O` (centres undefined), the max dye-equivalent concentration was “inactive”. In the case of `N=C(N)SCc1cc(Cl)cc(Cl)c1O`, the max dye-equivalent concentration is reported as “inactive”. In the case of `COCC(C)NS(=O)(=O)c1ccc(NC(=O)C(Cc2ccccc2)NC(N)=O)cc1` (centres undefined), the max dye-equivalent concentration is reported as inconclusive: 1.8e-09 M. For `CN1CCN(C(=O)c2cc(-c3cccc(Cl)c3)on2)CC1`, the max dye-equivalent concentration was inconclusive: 5e-09 M. In the case of `CN(C)CCCN1c2ccccc2Sc2ccc(Cl)cc21`, the max dye-equivalent concentration is reported as inconclusive: 2.8e-09 M and inconclusive: 1.9e-09 M. For `O=C1NC(=S)SC1=C1CCCCCC1`, the max dye-equivalent concentration was inconclusive: 1.3e-09 M. For `CN1/C(=C\C(=O)COC(=O)C2COc3ccccc3O2)C(C)(C)c2ccccc21` (centres undefined), the max dye-equivalent concentration was active: 1.9e-08 M. In the case of `CCN(C(=O)CCS(=O)(=O)c1ccc(Br)cc1)c1ccc2c(c1)OCO2`, the max dye-equivalent concentration is reported as inconclusive: 3.4e-09 M. For `O=C(CCN1C(=O)COc2ccccc21)NCCN1CCOCC1`, the max dye-equivalent concentration was inconclusive: 3.9e-09 M. With `CCc1nc2ccccc2c(=O)n1NC(=O)c1c(O)c2cccc3c2n(c1=O)CCC3` the max dye-equivalent concentration was inconclusive: 7.6e-09 M. In the case of `Cc1onc(-c2ccccc2Cl)c1C(=O)Nc1cccc(-c2cn3cccnc3n2)c1`, the max dye-equivalent concentration is reported as active: 7.7e-07 M. In the case of `COc1ccc2nc(C)cc(N3CCOCC3)c2c1`, the max dye-equivalent concentration is reported as active: 2.2e-08 M. In the case of `O=C(c1cnccn1)N1CCC2(CC1)CCN(c1ccccc1)CC2`, the max dye-equivalent concentration is reported as “inactive”. With `CCNc1ncc2nc(C)c(=O)n(-c3ccc(OC)cc3)c2n1` the max dye-equivalent concentration was inconclusive: 9.4e-09 M. With `COc1ccc(C(=O)N2CCC3(CCCN(c4ncccn4)C3)CC2)cc1` the max dye-equivalent concentration was “inactive”. For `CCCCn1c(NC(=O)c2ccccc2Cl)c(C#N)c2nc3ccccc3nc21`, the max dye-equivalent concentration was active: 2.3e-07 M. With `CCn1c(SCC(=O)c2cccs2)nnc1-c1ccco1` the max dye-equivalent concentration was inconclusive: 4.5e-09 M.
